Two molecules from US20190062408A1 can be followed below.

Chains of the proteins cited; added tags and fusions are not shown. Lines headed by an entry give the natural chain unless they say otherwise; changes in a name come on top. Residues count along the entry.
UniProt P03452, residues 18-565: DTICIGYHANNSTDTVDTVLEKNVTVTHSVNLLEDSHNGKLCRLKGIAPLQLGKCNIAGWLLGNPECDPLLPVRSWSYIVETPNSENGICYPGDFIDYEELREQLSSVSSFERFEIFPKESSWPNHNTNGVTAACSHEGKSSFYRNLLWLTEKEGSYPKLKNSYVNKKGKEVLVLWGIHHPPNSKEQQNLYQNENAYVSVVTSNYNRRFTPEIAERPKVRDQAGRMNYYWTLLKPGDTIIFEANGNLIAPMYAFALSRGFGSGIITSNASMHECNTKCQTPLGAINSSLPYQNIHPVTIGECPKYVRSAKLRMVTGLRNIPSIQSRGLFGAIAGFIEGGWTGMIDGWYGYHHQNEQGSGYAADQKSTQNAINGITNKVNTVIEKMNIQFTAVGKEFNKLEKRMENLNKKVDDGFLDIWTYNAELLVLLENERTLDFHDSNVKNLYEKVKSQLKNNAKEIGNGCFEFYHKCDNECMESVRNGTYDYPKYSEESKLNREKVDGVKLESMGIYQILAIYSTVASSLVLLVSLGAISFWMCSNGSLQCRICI
UniProt P03456: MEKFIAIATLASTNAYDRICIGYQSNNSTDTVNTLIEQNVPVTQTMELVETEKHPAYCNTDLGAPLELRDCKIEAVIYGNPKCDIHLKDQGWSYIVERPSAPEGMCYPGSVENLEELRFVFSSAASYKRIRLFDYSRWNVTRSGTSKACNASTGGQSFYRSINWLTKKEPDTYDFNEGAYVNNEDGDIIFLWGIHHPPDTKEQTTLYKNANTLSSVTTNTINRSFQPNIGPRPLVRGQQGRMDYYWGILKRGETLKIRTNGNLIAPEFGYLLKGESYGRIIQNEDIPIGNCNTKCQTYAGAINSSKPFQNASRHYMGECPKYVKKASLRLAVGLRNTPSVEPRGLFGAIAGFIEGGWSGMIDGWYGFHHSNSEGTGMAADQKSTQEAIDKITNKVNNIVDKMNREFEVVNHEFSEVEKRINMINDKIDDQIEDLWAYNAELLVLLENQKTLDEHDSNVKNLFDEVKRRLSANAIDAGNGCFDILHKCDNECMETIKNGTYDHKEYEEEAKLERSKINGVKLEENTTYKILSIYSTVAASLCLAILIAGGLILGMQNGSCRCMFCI

Test [1] has as its target H1-PR34 full-length HA (Influenza A virus A/Puerto Rico/8/34 (H1N1)) (UniProt P03452). As to the kind of experiment: FACS, transfected 293T cells (H1-PR34). In general terms: In flow cytometry, cells or beads pass a laser one at a time.
In test [2] the target is H2-JP57 full-length HA (Influenza A virus A/Japan/305/57 (H2N2)) (UniProt P03451). The test is described as follows: FACS, transfected 293T cells (H2-JP57).
For test [3] the target is unchanged. As to the kind of experiment: FACS, transfected 293T cells.
For test [4], the target named is H8-ON68 full-length HA (Influenza A virus A/turkey/Ontario/6118/68) (UniProt P03456). As to the kind of experiment: FACS, transfected 293T cells (H8-ON68).

Results are given in words; binding and its absence hold for the method and conditions named. Some results given as binding are weak or reduced against the parent protein; the word gives no strength.

B1: F10-IgG1 (antibody, V domains shown)
VH: QVQLVQSGAEVKKPGSSVKVSCTSSEVTFSSFAISWVRQAPGQGLEWLGGISPMFGTPNYAQKFQGRVTITADQSTRTAYMDLRSLRSEDTAVYYCARSPSYICSGGTCVFDHWGQGTLVTVSS
VL: QPGLTQPPSVSKGLRQTATLTCTGNSNNVGNQGAAWLQQHQGHPPKLLSYRNNDRPSGISERFSASRSGNTASLTITGLQPEDEADYYCSTWDSSLSAVVFGGGTKLTVL
As to B1, the binding entry in test [1], in test [2] and in test [3] was “binds” throughout.

B2: D8-IgG1 (antibody, V domains shown)
VH: QVQLVQSGAEVKKPGSSVKVSCKASGGTFSAYAFTWVRQAPGQGLEWMGGITGMFGTANYAQKFQGRVTITADELTSTAYMELSSLTSEDTALYYCARGLYYYESSLDYWGQGTLVTVSS
VL: QSVLTQPPSASGSPGQSVTISCTGTSSDVGGYNSVSWYQQHPGKAPKLMIYEVTKRPSGVPDRFSASKSGNTASLTVSGLQAEDEADYFCCSYAGHSAYVFGTGTKVTVL
Turning to B2, the binding result in test [4] and in test [1] was “binds” each time.
